These are yes or no findings as the source states them, for the method shown. Binding seen in cells or lysates may run through a third protein. Sequences can lack the tags named with a protein.
Key:
[1] = biological target: T1, CiLV-C p29 with a C-terminal HA epitope, transiently expressed (pMOG-p29:HA) (citrus leprosis virus C) (UniProt Q1KZ58); experiment: co-IP; HA- and 3xMyc-tagged proteins transiently co-expressed in N. benthamiana leaves, 3 dpi; extract in 25 mM Tris HCl pH 7.4, 150 mM NaCl, 1 mM EDTA, 1% NP-40, 5% glycerol; Pierce anti-HA magnetic beads, 90 min at room temperature; blots with anti-HA and anti-c-Myc
T1 sequence: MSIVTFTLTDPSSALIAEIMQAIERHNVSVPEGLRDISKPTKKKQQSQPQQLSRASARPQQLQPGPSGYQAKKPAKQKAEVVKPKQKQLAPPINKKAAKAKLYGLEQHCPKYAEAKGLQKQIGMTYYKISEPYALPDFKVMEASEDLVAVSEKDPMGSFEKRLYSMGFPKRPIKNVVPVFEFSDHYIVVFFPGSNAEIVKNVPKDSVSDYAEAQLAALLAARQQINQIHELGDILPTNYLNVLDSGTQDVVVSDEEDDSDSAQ

[2] = biological target: T2, CiLV-C p29 with an N-terminal HA epitope, transiently expressed (citrus leprosis virus C) (UniProt Q1KZ58); experiment: as above
T2 sequence: T1 sequence

## Poly(A)-binding protein with a C-terminal 3xMyc tag
[1]
  binding: no binding
[2]
  binding: no binding

## Poly(A)-binding protein with an N-terminal 3xMyc tag
[1]
  binding: no binding
[2]
  binding: no binding

## eIF4E with a C-terminal 3xMyc tag
[1]
  binding: no binding
[2]
  binding: no binding

## eIF4E with an N-terminal 3xMyc tag
[1]
  binding: no binding
[2]
  binding: no binding
